# Laboratory results: PubChem BioAssay AID652272 (Drosophila RNAi Screening Center, 2013)
# Purpose: 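Finding fly genes that regulate Hedgehog signal transduction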 (primary screen)
# System: Drosophila clone 8 (Cl8) cells
# Knock-down reagent: long dsRNA against Drosophila genes
# Measurement: 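Plate reader light from a firefly reporter under a ptc promoter fragment that responds to Hedgehog, with Renilla light as transfection reference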
# Reading the numbers: firefly Hh reporter signal: higher = more ptc reporter light; Renilla reference signal: higher = more Renilla control light
# Call rule: 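Called a hit if the two-replicate mean z-score lies below -2 or above +3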
# Calls: active = hit: reporter lowered or raised; inactive = not a hit
# In all, the deposit lists about 21,000 reagents; this is a random part of those with a known target gene and a result. Of all reagents, 503 (2.4%) were called active. 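Raw plate light values, not normalised; calls rest on replicate z-scores that were not deposited; hits include reporter decreases as well as increases.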 Entries without a mark were called inactive. The numbers tell different reagents against one gene apart. A plus sign joins genes that one reagent is predicted to hit. Not given: the amount of reagent, the time to read-out.
target,reagent no.,"firefly Hh reporter signal, replicate 1","firefly Hh reporter signal, replicate 2","firefly Hh reporter signal, replicate 3","Renilla reference signal, replicate 1","Renilla reference signal, replicate 2"
ppk27 (pickpocket 27),1,1.12e5,97488,,4048,6438
CG17698,1,85340,96633,,2816,2792
CG11127,1,1.33e5,90128,,4592,2668
CG2003,1,77659,2.80e5,,2800,10018
CG43260 (retired record),1,7.40e5,2.31e5,,41922,5521
pot (papillote),1,87591,77512,,2000,1834
CG17107,1,1.34e5,5.09e5,54770,2026,26763
CG3213,1,1.71e5,66407,,4291,6588
Cp110 (Centriolar coiled coil protein 110kDa),1,1.48e5,1.21e5,,3658,3138
Met (Methoprene-tolerant),1,75942,3.00e5,,2162,10973
CG13443,1,1.05e5,46953,,4184,3914
OtopLb (Otopetrin-like b),1,70448,61308,,3472,2883
CG31788,1,1.17e5,2.29e5,,1809,11765
Or22c (Odorant receptor 22c),1,84516,95200,,2486,2217
lncRNA:CR43435 (long non-coding RNA:CR43435),1,1.89e5,,,3830,
CG14892,1,67277,85456,,2458,2276
CAH6 (Carbonic anhydrase 6),1,1.28e5,85237,,4576,2497
CG5984,1,87763,1.08e5,,2982,3574
Arf1 (ADP ribosylation factor 1),1,95648,1.16e5,,5142,5072
CG17717,1,70304,1.89e5,,2567,7042
mtg (mind the gap),1,86933,1.04e5,,2822,3078
Droj2 (DnaJ-like-2),1,90209,59148,,3882,1840
RpS14b (Ribosomal protein S14b),1,47915,22183,,3769,939
Cyp318a1 (Cytochrome P450 318a1),1,94784,3.05e5,,2656,10752
CG5793 + Obp93a,1,5.34e5,1.05e5,,36240,503
CG6766,1,1.15e5,4.75e5,69929,3026,28440
Hsp70Aa + Hsp70Bb + Hsp70Ba + 3 more,1,84973,75622,,4284,2452
eIF2Bepsilon (eukaryotic translation initiation factor 2B subunit epsilon),1,98485,91236,,2413,3624
CG8149,1,56200,95988,,2049,2912
CG34181,1,5.31e5,1.41e5,,27474,8465
CG7627,1,66779,93522,,3056,3612
nSyb (neuronal Synaptobrevin),1,1.40e5,93770,,6153,3600
CG33695 + cana,1,3.80e5 (active),1.62e5,,24624,9346
CG33695 + cana,2,1.15e5,70316,,3079,5459
Rb97D (Ribonuclear protein at 97D),1,77430,93715,,3062,2748
CG12493,1,88006,71482,,9601,5512
CG13312,1,59648,78226,,7149,4565
gb (genderblind),1,1.30e5,85513,,2577,2469
CG15422,1,1.43e5,69633,,3691,6404

Reprinted from above, 2 entries:
target,reagent no.,"firefly Hh reporter signal, replicate 1","firefly Hh reporter signal, replicate 2","firefly Hh reporter signal, replicate 3","Renilla reference signal, replicate 1","Renilla reference signal, replicate 2"
Rb97D (Ribonuclear protein at 97D),1,77430,93715,,3062,2748
CG12493,1,88006,71482,,9601,5512
